Measured values published in the supplement of paper PMC3334620.
Whole data set: some 33,000 sequences, median “E-score (-0.5 to 0.5)” near -0.0059, cut for the highest 2% near 0.26. The list shows a part of the results.

molecular target: T1, Cin5 (UniProt P40917); experiment: PBM E-score (8-mer binding enrichment) (E-score (-0.5 to 0.5)); higher = stronger / more preferred TF binding; settings: protein concentration: 100 nM; construct: GST-full length
T1 sequence: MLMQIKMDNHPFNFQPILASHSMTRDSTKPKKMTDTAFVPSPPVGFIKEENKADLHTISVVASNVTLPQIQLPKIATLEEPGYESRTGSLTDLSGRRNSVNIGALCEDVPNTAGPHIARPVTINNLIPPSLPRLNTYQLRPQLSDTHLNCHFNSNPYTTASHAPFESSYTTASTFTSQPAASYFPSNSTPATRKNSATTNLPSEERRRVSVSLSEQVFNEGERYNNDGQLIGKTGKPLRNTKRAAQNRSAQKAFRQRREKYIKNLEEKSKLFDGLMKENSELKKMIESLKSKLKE
How it was run: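 For each ungapped eight-base word taken together with its reverse complement, the Universal PBM Analysis Suite assigned an E-score. Binding data came from GST-tagged yeast transcription factors, applied at about 100-200 nM, on universal all-10-mer Agilent arrays made double-stranded by primer extension. Fluorescent anti-GST marked bound protein, and scans were normalised with masliner.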

Row | Sequence | PBM E-score
1 | AATTCGGG | -0.0241
2 | AAAGCCAG | -0.0892
3 | CTGCTATC | 0.0831
4 | GGTCTTGA | -0.134
5 | CTGAGGAA | -0.151
6 | AGGGTTAA | -0.159
7 | CCGCTGCC | -0.052
8 | CAAATACC | 0.0642
9 | ATGCGAGA | 0.00541
10 | ACGACGCC | -0.276
11 | CATCAAAG | -0.0276
12 | AAACTATA | 0.183
13 | AAACCTTA | 0.0451
14 | ACTACGTG | -0.223
15 | CACCGTGG | -0.302
16 | CAGTCCGC | -0.123
17 | AGCTAAAG | -0.0853
18 | GGCTGCGA | -0.109
19 | ACATATAC | 0.0358
20 | AGGCAAGG | -0.277
21 | CGGCAGGC | -0.223
22 | ACTGGGAT | 0.0399
23 | ATGGACGG | 0.128
24 | GGAGTCGA | -0.0634
25 | CGTACGAC | -0.199

Row | Sequence | PBM E-score
26 | CAGATCAC | -0.0263
27 | CGTAATTA | 0.197
28 | CGATGGAG | -0.0143
29 | GTGATTCA | 0.0124
30 | CGGCGGGC | -0.0846
31 | ACGCTGGG | -0.273
32 | GGTAGTTA | 0.0876
33 | GCACGCAA | -0.132
34 | CGCCTAGC | -0.21
35 | CGCCTACA | 0.0039
36 | AGTAACAA | 0.15
37 | CTACAGAG | -0.136
38 | GGAATATA | 0.221
39 | ATGGTGGC | -0.252
40 | AAAAGTGA | 0.112
41 | GGAACGGA | 0.0175
42 | GAGTCATA | 0.043
43 | ATATTTAC | 0.159
44 | CATGCAAG | 0.0974
45 | CACGAGGA | -0.17
46 | CCGAGCTA | 0.0512
47 | AGATGAGC | 0.0118
48 | TATGTAGA | 0.0278
49 | ATCCTGTA | -0.0318
50 | AGCAAATG | 0.0431

Row | Sequence | PBM E-score
51 | GGCATTAC | 0.186
52 | TAGAGACA | -0.17
53 | GAGATCTC | -0.0335
54 | CTGCGTCC | -0.22
55 | CAATCGGG | -0.0378
56 | GGCTTTAA | -0.182
57 | CGCGTCAA | 0.00724
58 | ATCGTGAG | -0.0672
59 | ATACTAAA | 0.265
60 | AGCCAAAC | -0.0159
61 | CGAATCTC | -0.151
62 | GCATGCAC | 0.00446
63 | CCGAATCA | -0.017
64 | GCCATTAA | 0.0155
65 | TAGGGGAA | -0.0332
66 | ACAGTCCC | -0.253
67 | ACCCCATA | 0.00853
68 | CCTTGAAG | -0.139
69 | AGAAGGAT | 0.0541
70 | GCGTTATA | 0.0906
71 | GACTCCCA | -0.312
72 | CACATCAA | 0.194
73 | TACGTGCA | 0.0794
74 | GAATCAAC | 0.211
75 | AGCTCTAG | -0.0574

Row | Sequence | PBM E-score
76 | CATGGGTC | -0.0514
77 | GGGTCGTA | -0.122
78 | GACACGAA | -0.0198
79 | CTCAGGCC | -0.282
80 | CGTGCCTA | -0.177
81 | ACCGCAAC | 0.247
82 | CGTATATC | 0.00536
83 | ATCCCCCC | -0.433
84 | CGCCAGGC | -0.0298
85 | AGTACTCG | 0.153
86 | ACTCCGCT | -0.0398
87 | CTTTTCCA | -0.113
88 | AGTTCACA | -0.0198
89 | AGGTTAGA | -0.0977
90 | TCAATCAA | 0.173
91 | ATGGAGTG | -0.0775
92 | ACTATCAT | 0.199
93 | AAACGGCT | -0.0602
94 | AAGTGAAG | 0.0767
95 | TACCACAA | 0.151
96 | AGCAGGCA | -0.193
97 | AGTCGATC | -0.00635
98 | TCCTAACA | 0.0338
99 | AAAACACC | 0.0481
100 | ACGACAAA | 0.159

Row | Sequence | PBM E-score
101 | ACGTAGCG | -0.214
102 | CTTCAGCC | -0.156
103 | CAAGGTCG | 0.00633
104 | AAGAGTCT | -0.0712
105 | CGAGTTAA | 0.15
106 | CGGGCCTC | 0.0182
107 | CACTGAAG | -0.00773
108 | AATTGGTA | 0.0713
109 | CCATTAGC | -0.0184
110 | CGATTCAG | 0.0171
111 | GCTGTCTA | -0.101
112 | TCCCGACA | 0.049
113 | AATAAGAA | 0.226
114 | AGACTTCA | -0.21
115 | GTCCTCTA | -0.217
116 | AAAGAATA | 0.17
117 | ATGGGCCC | -0.246
118 | CAACGGAC | -0.105
119 | AGGGCGTC | -0.16
120 | CTTCGTGC | -0.0972
121 | ATTTTACA | -0.068
122 | CTCCCCTA | -0.0952
123 | CGCCGCAG | -0.0953
124 | CGCTTGCA | 0.0308
125 | CTCAATCC | 0.0626

Row | Sequence | PBM E-score
126 | GGCGACTA | -0.123
127 | TAGCCTCA | -0.0491
128 | ACGCCAGC | -0.155
129 | ATTACCGG | -0.0367
130 | TCTAGTAA | 0.205
131 | CATCCTGG | 0.149
132 | ATGGATGG | 0.011
133 | CGGCTCGA | 0.0213
134 | ATTAGCAG | 0.0842
135 | CCATTGGC | -0.129
136 | AGTTTCGA | -0.054
137 | AGACCTGG | -0.0148
138 | TCATTAGA | 0.00334
139 | TCGCGCCA | -0.0143
140 | ATTACTAC | 0.145
141 | ACAGCCGT | -0.0791
142 | CGTAGGAA | -0.118
143 | AAGTTATA | 0.0673
144 | ATGCTAGA | -0.138
145 | ACCGAACC | -0.213
146 | GGCGTATA | -0.0201
147 | ACAAAGCG | 0.0796
148 | GATTAACA | 0.252
149 | ACGGAGAC | 0.031
150 | GCTAGCGA | -0.0157

Row | Sequence | PBM E-score
151 | TACCTACA | 0.103
152 | AACTTTCC | 0.133
153 | ACTAACCG | -0.058
154 | ATAAGAAA | 0.156
155 | ACCCGAGT | 0.0384
156 | TAGTCGGA | 0.0932
157 | CTAACTCC | -0.0985
158 | TTATCGAA | 0.0654
159 | ATCGTAGA | -0.0908
160 | AACGAGAA | 0.171
161 | AACGAAAA | 0.201
162 | AGGTGGTG | -0.0654
163 | CTATAGAA | -0.0388
164 | GATGATCC | 0.0125
165 | CCGGAGAG | -0.166
166 | CTAACCGC | -0.16
167 | ATGCTTTC | 0.155
168 | GGTATTTA | 0.0824
169 | AAAAGAAG | 0.0481
170 | GAACTTGA | 0.0475
171 | ACGGACCG | -0.227
172 | ATTTCCCC | 0.0813
173 | GATGCACA | -0.00351
174 | GTTGTCGA | -0.0513
175 | ATGATGTA | 0.305

Some of the entries above in a different format:
Row,Sequence,PBM E-score
107,CACTGAAG,-0.00773
108,AATTGGTA,0.0713
109,CCATTAGC,-0.0184
110,CGATTCAG,0.0171
111,GCTGTCTA,-0.101
112,TCCCGACA,0.049
113,AATAAGAA,0.226
114,AGACTTCA,-0.21
115,GTCCTCTA,-0.217
116,AAAGAATA,0.17
117,ATGGGCCC,-0.246
118,CAACGGAC,-0.105
119,AGGGCGTC,-0.16
120,CTTCGTGC,-0.0972
121,ATTTTACA,-0.068
122,CTCCCCTA,-0.0952
123,CGCCGCAG,-0.0953
124,CGCTTGCA,0.0308
125,CTCAATCC,0.0626
126,GGCGACTA,-0.123
127,TAGCCTCA,-0.0491
128,ACGCCAGC,-0.155
129,ATTACCGG,-0.0367
130,TCTAGTAA,0.205
131,CATCCTGG,0.149
132,ATGGATGG,0.011
133,CGGCTCGA,0.0213
134,ATTAGCAG,0.0842
135,CCATTGGC,-0.129
136,AGTTTCGA,-0.054
137,AGACCTGG,-0.0148
138,TCATTAGA,0.00334
139,TCGCGCCA,-0.0143
140,ATTACTAC,0.145
141,ACAGCCGT,-0.0791
142,CGTAGGAA,-0.118
143,AAGTTATA,0.0673
144,ATGCTAGA,-0.138
145,ACCGAACC,-0.213
146,GGCGTATA,-0.0201
147,ACAAAGCG,0.0796
148,GATTAACA,0.252
149,ACGGAGAC,0.031
150,GCTAGCGA,-0.0157
151,TACCTACA,0.103
152,AACTTTCC,0.133
153,ACTAACCG,-0.058
154,ATAAGAAA,0.156
155,ACCCGAGT,0.0384
156,TAGTCGGA,0.0932
157,CTAACTCC,-0.0985
158,TTATCGAA,0.0654
159,ATCGTAGA,-0.0908
160,AACGAGAA,0.171
161,AACGAAAA,0.201
162,AGGTGGTG,-0.0654
163,CTATAGAA,-0.0388
164,GATGATCC,0.0125
165,CCGGAGAG,-0.166
166,CTAACCGC,-0.16
167,ATGCTTTC,0.155
168,GGTATTTA,0.0824
169,AAAAGAAG,0.0481
170,GAACTTGA,0.0475
171,ACGGACCG,-0.227
172,ATTTCCCC,0.0813
173,GATGCACA,-0.00351
174,GTTGTCGA,-0.0513

The listing continues:

Row | Sequence | PBM E-score
176 | AGCACATA | 0.0423
177 | ACTCGGGC | -0.124
178 | ATGCCTAA | -0.153
179 | CTAACGTC | 0.119
180 | CGCTGGAG | -0.189
181 | CACGAACG | -0.0149
182 | ACCGCCTG | -0.161
183 | ATCTACCA | 0.24
184 | GAGGACTA | -0.187
185 | GAGTGACA | 0.127
186 | CCCACCAC | 0.0747
187 | GATGGTGA | -0.0298
188 | AACCTCCA | -0.276
189 | GACTGCGA | -0.0347
190 | GCGGGAAC | -0.0927
191 | AGGGTCGC | -0.156
192 | GAACGAGC | 0.0313
193 | AATAAGCA | 0.176
194 | ACGCCAAG | -0.196
195 | CCGGGCTC | -0.273
196 | AATTATCA | 0.251
197 | AGGACACG | -0.0874
198 | ATACGCAA | 0.217
199 | ACTGGGGA | -0.0554
200 | AACTGGAC | -0.0445

Row | Sequence | PBM E-score
201 | AGTCTTGA | -0.104
202 | AAGAAGCG | -0.153
203 | CGATTCAC | 0.00169
204 | AACTTTCA | -0.0043
205 | CTGACCGA | -0.11
206 | GCTCTCCA | -0.225
207 | AAAGAACC | -0.0517
208 | GCAGCGTA | -0.109
209 | AAAGGCCT | -0.313
210 | TACTGATA | 0.209
211 | AGTCACAC | -0.0843
212 | CTTTTTGC | 0.116
213 | AGATGTAG | 0.0138
214 | ATTTAGAC | 0.00055
215 | GCGCGTAA | 0.214
216 | CTAGTTCA | 0.0732
217 | AGATCGGC | -0.165
218 | AGGGATAG | -0.0284
219 | CAAGCTGG | -0.202

Five entries drawn at random from those above, as already listed:
Row | Sequence | PBM E-score
216 | CTAGTTCA | 0.0732
201 | AGTCTTGA | -0.104
213 | AGATGTAG | 0.0138
217 | AGATCGGC | -0.165
215 | GCGCGTAA | 0.214
